Data as given in PubChem BioAssay AID1224830 (NIAID, 2016).
This is an unselected part of about 18,000 reagents. Of all reagents, about 2,900 (16%) are marked active. 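Calls are made per well; low scores hint the gene aids the LPS response, high scores that it dampens it.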 Repeated entries: four replicate wells of each siRNA pool. No sequences are given here.

Screen: 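Regulators of TLR4 signalling towards TNF-alpha in macrophage-like cells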 (primary screen)
Cells: human THP-1 monocytic leukaemia cells, TNF dual-luciferase reporter clone, PMA-differentiated to macrophage-like cells
Reagent: siRNA pool against human genes, 50 nM
Duration: LPS for 4 h, given about 3 days after siRNA transfection
Treatment: bacterial LPS (TLR4 ligand), 10 ng/ml
Read-out: 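Ratio of firefly to renilla light, scaled to the plate median and expressed as a robust z-score per replicate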
Direction: TNF reporter robust z-score: higher = stronger TNF reporter response to LPS
Call rule: 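a well is active when its z-score exceeds 2.8 or falls below -1.5; control wells carry no call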

TNF reporter robust z-score | activity call | gene
-0.34 | inactive | DYNLT1 (GeneID 6993)
0.81 | inactive | DYNLT1 (GeneID 6993)
-0.62 | inactive | DYNLT1 (GeneID 6993)
-0.04 | inactive | DYNLT1 (GeneID 6993)
0.44 | inactive | ACSM2B (GeneID 348158)
0.5 | inactive | ACSM2B (GeneID 348158)
0.6 | inactive | ACSM2B (GeneID 348158)
0.87 | inactive | ACSM2B (GeneID 348158)
0.67 | inactive | WDR11 (GeneID 55717)
-0.04 | inactive | WDR11 (GeneID 55717)
-0.49 | inactive | WDR11 (GeneID 55717)
-0.5 | inactive | WDR11 (GeneID 55717)
0.75 | inactive | MMP19 (GeneID 4327)
1.47 | inactive | MMP19 (GeneID 4327)
1.52 | inactive | MMP19 (GeneID 4327)
3.63 | active | MMP19 (GeneID 4327)
-0.49 | inactive | CYBB (GeneID 1536)
-0.84 | inactive | CYBB (GeneID 1536)
-0.91 | inactive | CYBB (GeneID 1536)
-0.3 | inactive | CYBB (GeneID 1536)
-0.63 | inactive | SCGB1C1 (GeneID 147199)
-0.81 | inactive | SCGB1C1 (GeneID 147199)
-0.58 | inactive | SCGB1C1 (GeneID 147199)
0.31 | inactive | SCGB1C1 (GeneID 147199)
0.21 | inactive | RPL23AP82 (GeneID 284942)
0.28 | inactive | RPL23AP82 (GeneID 284942)
0.66 | inactive | RPL23AP82 (GeneID 284942)
-0.55 | inactive | RPL23AP82 (GeneID 284942)
2.35 | inactive | OSMR (GeneID 9180)
2.83 | active | OSMR (GeneID 9180)
2.42 | inactive | OSMR (GeneID 9180)
2.81 | active | OSMR (GeneID 9180)
-0.16 | inactive | TXNL4A (GeneID 10907)
0.1 | inactive | TXNL4A (GeneID 10907)
-0.02 | inactive | TXNL4A (GeneID 10907)
-0.36 | inactive | TXNL4A (GeneID 10907)

The list goes on (8 carried over from the part before).
TNF reporter robust z-score | activity call | gene
2.35 | inactive | OSMR (GeneID 9180)
2.83 | active | OSMR (GeneID 9180)
2.42 | inactive | OSMR (GeneID 9180)
2.81 | active | OSMR (GeneID 9180)
-0.16 | inactive | TXNL4A (GeneID 10907)
0.1 | inactive | TXNL4A (GeneID 10907)
-0.02 | inactive | TXNL4A (GeneID 10907)
-0.36 | inactive | TXNL4A (GeneID 10907)
-0.49 | inactive | NDUFA8 (GeneID 4702)
-0.21 | inactive | NDUFA8 (GeneID 4702)
-0.16 | inactive | NDUFA8 (GeneID 4702)
-0.27 | inactive | NDUFA8 (GeneID 4702)
2.44 | inactive | SF3A1 (GeneID 10291)
-0.11 | inactive | SF3A1 (GeneID 10291)
0.09 | inactive | SF3A1 (GeneID 10291)
-0.93 | inactive | SF3A1 (GeneID 10291)
-0.67 | inactive | FBXW7 (GeneID 55294)
-1.69 | active | FBXW7 (GeneID 55294)
-2.19 | active | FBXW7 (GeneID 55294)
-2.28 | active | FBXW7 (GeneID 55294)
-0.01 | inactive | LRRC15 (GeneID 131578)
1.27 | inactive | LRRC15 (GeneID 131578)
1.2 | inactive | LRRC15 (GeneID 131578)
0.86 | inactive | LRRC15 (GeneID 131578)
-0.97 | inactive | METTL8 (GeneID 79828)
0.38 | inactive | METTL8 (GeneID 79828)
-0.13 | inactive | METTL8 (GeneID 79828)
0.78 | inactive | METTL8 (GeneID 79828)
-0.79 | inactive | C11orf16 (GeneID 56673)
-0.42 | inactive | C11orf16 (GeneID 56673)
-0.72 | inactive | C11orf16 (GeneID 56673)
0.04 | inactive | C11orf16 (GeneID 56673)
0.79 | inactive | GAS6 (GeneID 2621)
-0.8 | inactive | GAS6 (GeneID 2621)
-0.95 | inactive | GAS6 (GeneID 2621)
-0.32 | inactive | GAS6 (GeneID 2621)
-0.49 | inactive | HIBADH (GeneID 11112)
-0.46 | inactive | HIBADH (GeneID 11112)
-0.65 | inactive | HIBADH (GeneID 11112)
-1.47 | inactive | HIBADH (GeneID 11112)
-0.32 | inactive | IST1 (GeneID 9798)
-0.55 | inactive | IST1 (GeneID 9798)
-0.11 | inactive | IST1 (GeneID 9798)
0.59 | inactive | IST1 (GeneID 9798)
0.77 | inactive | DPY19L4 (GeneID 286148)
1.18 | inactive | DPY19L4 (GeneID 286148)
-0.15 | inactive | DPY19L4 (GeneID 286148)
0.81 | inactive | DPY19L4 (GeneID 286148)
